# Laboratory results as given in patent US10306895B2, “Plant defense signaling peptides and applications thereof” (Academia Sinica, priority 2014, dated 2019).
# Not every detail of the peptide structures is certain; ends, links or a residue may be inferred. Ends that are not written are not given here.
# How the values were obtained:
# [1] = test system: H2O2 production in tomato leaves; test: In vivo detection of H2O2 by DAB staining in detached tomato leaves; set-up: species or system Solanum lycopersicum (tomato); conditions: 250 nM peptide, 4 hours
# [2] = test system: PI-1, PI-2, PR-1b, PR-2, PR-7, Chi2;1, ERF5, Adi3 gene expression; test: qRT-PCR of defense genes in tomato plants sprayed with peptide; assay type: in vivo, Solanum lycopersicum (tomato); conditions: plants sprayed with 250 nM CAPE1; 4, 8, 24 hours; vs water
# [3] = test system: JA and JA-Ile accumulation; test: Jasmonate hormone quantitation by LC-MS/MS in excised tomato plants; assay type: in vivo, Solanum lycopersicum (tomato)
# SA accumulation = test: Salicylic acid quantitation by LC-MS/MS in excised tomato plants; assay type: in vivo, Solanum lycopersicum (tomato); conditions: 365 nM peptide supplied to excised plants through cut stem, 8 hours
# Protocol: (a) The level of SA induced by CAPE1 and flg22. The excised plants were pretreated with 10 mM phosphate buffer (buffer) or 365 nM CAPE1 or 365 nM flg22 in buffer through the cut stem for 8 hours (n=3). The quantity of SA was quantified by LC-SRM-MS and calculated based on the abundance of spiked SA isotopic standard (d6-SA). (b) The relative expression of WRKY53 and PR-1b were quantified by comparing the expression levels in untreated detached leaves with the detached leaves treated with water, 250 nM CAPE1 or 250 nM flg22 for 2 hours (n=4). The internal control Ubi3 was used for normalization. […]
# After peptide treatment, the metabolites were extracted from leaf tissues for phytohormone quantitation. […] The dried samples were dissolved in 300 μl methanol, mixed well and centrifuged at 10,000×g at 4° C. for 5 minutes and then the supernatant was transferred to the sample vial for targeted quantitation analysis using LC-MS/MS.
# For phytohormone quantitation, a linear ion trap-orbitrap mass spectrometer (Orbitrap Elite, Thermo Fisher Scientific, Bremen, Germany) coupled online with a UHPLC system (ACQUITY UPLC, Waters, Millford, Mass.) was used. […] The fragmentation reactions of m/z 137.02 to 93.03 for SA, 209.12 to 59.01 for JA, 322.20 to 130.09 for JA-Ile, 141.05 to 97.06 for d6-SA and 211.13 to 59.01 for H2JA were selected for quantitation. […]
# [4] = test system: WRKY53 and PR-1b gene expression; test: qRT-PCR of WRKY53 and PR-1b in detached tomato leaves; assay type: in vivo, Solanum lycopersicum (tomato); conditions: 250 nM peptide, 2 hours
# Protocol: (a) The level of SA induced by CAPE1 and flg22. The excised plants were pretreated with 10 mM phosphate buffer (buffer) or 365 nM CAPE1 or 365 nM flg22 in buffer through the cut stem for 8 hours (n=3). The quantity of SA was quantified by LC-SRM-MS and calculated based on the abundance of spiked SA isotopic standard (d6-SA). (b) The relative expression of WRKY53 and PR-1b were quantified by comparing the expression levels in untreated detached leaves with the detached leaves treated with water, 250 nM CAPE1 or 250 nM flg22 for 2 hours (n=4). The internal control Ubi3 was used for normalization. (c) The Pst DC3000 infection phenotypes for plants presprayed with water, 100 nM CAPE1 or 100 nM flg22 peptide for 2 hours (n=3) prior to the pathogen inoculation. The infection symptoms were observed 4 days after inoculation. […] A statistically significant difference compared with the correspondingly treated water (or buffer) samples is indicated with ** (P<0.01) or *** (P<0.001) based on Student's t-test.
# Quantitative real-time PCR (qRT-PCR) was used to validate the expression of some specific genes. Three biological replicates were used for qRT-PCR analyses. The qRT-PCR was performed using SYBR Green reagent and ABI 7500 Real Time PCR systems (Foster City, Calif.). […]
# [5] = test system: ERF5 and PR-1b gene expression; test: Systemic immune response: qRT-PCR of ERF5 and PR-1b in local and systemic tomato leaves; assay type: in vivo; conditions: local leaves treated with 250 nM CAPE1 for 24 hours, systemic leaves covered
# PI genes = PI genes induced by peptides in detached tomato leaves; assay type: in vivo, Solanum lycopersicum (tomato); conditions: detached leaves immersed in 250 nM peptide for 1, 2 and 4 hours
sequence,measurement,setting,value
"PVGNWIGQRPY [CAPE1, PVGNWIGQRPY]",H2O2 formation in tomato leaves as detected by DAB staining,[1],induces H2O2 formation
same,expression of anti-herbivore genes PI-1 and PI-2 (qRT-PCR),[2],activated
same,"expression of pathogen-related genes PR-1b, PR-2, PR-7, Chi2;1, ERF5 and Adi3 (qRT-PCR)",[2],activated
same,induction of JA and JA-Ile,"[3]; 365 nM peptide in buffer through the cut stem of excised plants, 2 and 4 hours",induced after 4 hours treatment
same,"JA and JA-Ile level, fold lower than that of systemin","[3]; 365 nM, excised plants, CAPE1 at 4 hours",~4 fold
same,induction of SA,SA accumulation,significantly induced SA
same,PR-1b expression,[4],highly induced
same,WRKY53 expression,[4],did not induce
same,systemic induction of defense gene (ERF5 and PR-1b) expression,[5],can be induced by CAPE1 systemically
same,induction level of PI genes compared with systemin treatment,PI genes,lower induction level
